Reference: patent publication US9295732B2 (CAYLA, priority 2013, dated 2016)

Test: general procedure: Fmoc solid-phase peptide synthesis; 2-chlorotrityl chloride resin (Fmoc-Lys(Boc)-O-2-CTC resin); HATU or HBTU or TBTU with DIEA
Settings: late stage modification step

Substance: (2S,5S,8S,11S,14S,17R)-17-amino-5-(4-(4-((6-amino-2-(butylamino)-8-hydroxy-9H-purin-9-yl)methyl)benzamido)butyl)-2,8,11-tris(4-aminobutyl)-14-(hydroxymethyl)-4,7,10,13,16,24-hexaoxo-21-(palmitoyloxy)-23-oxa-19-thia-3,6,9,12,15-pentaaza
- step yield: 98%
